Results published in patent US7842469B2, “Bioluminescence resonance energy transfer (BRET) systems and methods of use thereof” (Stanford University, priority 2005, dated 2010).
Some results were stated once for a whole list of compounds, not compound by compound.

Assay: Luciferase activity of purified RLuc mutants (light output integrated over 10 s, luminometer)
Assay type: biochemical
Conditions: Coelenterazine 400a (bisdeoxycoelenterazine)
Excerpt: Luminometer Calibration: Light measurements were made using a Turner 20/20 and later a Turner 20/20n luminometer (Turner Designs, Sunnyvale, Calif.). The luminometers were calibrated to absolute units (photons/s) using the luminol light standard performed in dimethyl sulfoxide (DMSO). No corrections were applied for the spectral sensitivity of the luminometer, as the spectral peak of luminol chemiluminescence in DMSO (486 nm) is close to the spectral peak of Renilla Luciferase bioluminescence (482 nm).
Characterization of Renilla Luciferase Mutants: Luciferase activity was measured by adding 1 μl of sample (diluted as necessary in EB containing 1% HSA) to 100 μl room temperature 100 mM sodium phosphate buffer (pH 7), manually adding 1 μl of 0.5 μg/μl coelenterazine or analog, manually mixing, and reading for 10 s in a luminometer. The time between the addition of the luciferin and the start of measurement was approximately 4 s.

B1: M185V: destabilized RLuc single mutant M185V (without C124A) (protein)
chain: MASKVYDPEQRKRMITGPQWWARCKQMNVLDSFINYYDSEKHAENAVIFLHGNAASSYLWRHVVPHIEPVARCIIPDLIGMGKSGKSGNGSYRLLDHYKYLTAWFELLNLPKKIIFVGHDWGACLAFHYSYEHQDKIKAIVHAESVVDVIESWDEWPDIEEDIALIKSEEGEKMVLENNFFVETVLPSKIMRKLEPEEFAAYLEPFKEKGEVRRPTLSWPREIPLVKGGKPDVVQIVRNYNAYLRASDDLPKMFIESDPGFFSNAIVEGAKKFPNTEFVKVKGLHFSQEDAPDEMGKYIKSFVERVLKNEQ
modifications: Chemically synthesized Renilla Luciferase
fold increase in light output versus native RLuc: 20-60 fold
